Results taken from article PMC7253382, “Trypanocidal and leishmanicidal activity of six limonoids” (Journal of Natural Medicines, 2020).

Tests used:
[1] = tested on: bloodstream forms of Trypanosoma brucei (clone 427-221a); assay: In vitro toxicity assay (resazurin), T. brucei bloodstream forms; format: cell-based; details: selectivity index GI50,HL-60/GI50,parasite
Protocol: (§1) Bloodstream forms of Trypanosoma brucei (clone 427-221a) and human myeloid leukaemia HL-60 cells were maintained in Baltz medium supplemented with 16.7% heat-inactivated bovine serum in a humidified atmosphere containing 5% CO2 at 37 °C. Promastigotes of Leishmania major (strain MHOM/IL/81/Friedlin [16]) were cultured in Schneider’s insect medium supplemented with 10% heat-inactivated foetal bovine serum in a humidified atmosphere containing 5% CO2 at 27 °C.
(§2) Toxicity assays were carried out as previously described with some modifications. In brief, cells were seeded in 96-well plates in a final volume of 200 μL of appropriate medium containing various concentrations of test compounds (tenfold dilution from 100 µM to 1 nM) and 1% DMSO. Wells just containing medium and 1% DMSO served as controls. The initial cell densities were 1 × 10^4/mL for T. brucei bloodstream forms, 2.5 × 10^5/mL for L. major promastigotes, and 5 × 10^4/mL for HL-60 cells. After 24 h incubation, 20 µL of a 0.5 mM resazurin solution prepared in PBS was added and the cells were incubated for a further 48 h. Thereafter, the absorbance of wells was read on a BioTek ELx808 microplate reader using a test wavelength of 570 nm and a reference wavelength of 630 nm. The 50% growth inhibition (GI50) value, i.e., the concentration of a compound necessary to reduce the growth rate of cells by 50% compared to the control, was determined by linear interpolation. The minimum inhibitory concentration (MIC) values, i.e. the concentration of a compound at which all trypanosomes and human cells were killed, was determined microscopically.

[2] = tested on: promastigotes of Leishmania major (strain MHOM/IL/81/Friedlin); assay: In vitro toxicity assay (resazurin), L. major promastigotes; format: cell-based; details: for L. major GI50 ratio: selectivity index GI50,HL-60/GI50,parasite; for L. major MIC ratio: selectivity index MIC HL-60/MIC parasite
Protocol: as §1, §2

SMILES | T. brucei GI50 ratio [1] | L. major GI50 ratio [2] | L. major MIC ratio [2]
CC1(C)C(=O)C=C[C@]2(C)C3CC[C@@]4(C)[C@H](c5ccoc5)OC(=O)[C@H]5O[C@]54[C@]3(C)[C@H](O)C[C@@H]12 (stereo partly drawn) [Compound 3, 7-deacetylgedunin] | 3.2 | 4.0 | 1
CC1(C)C(=O)C=C[C@]2(C)C3CC[C@@]4(C)[C@H](c5ccoc5)OC(=O)[C@H]5O[C@]54[C@]3(C)C(=O)C[C@@H]12 (stereo partly drawn) [Compound 4, 7-deacetyl-7-oxogedunin] | > 31.4 | > 13.1 | 1
C=C1[C@@H]2CC[C@@]3(C)[C@H](c4ccoc4)OC(=O)C[C@]13O[C@H]1CC(=O)C(C)(C)[C@H](CC(=O)OC)[C@]12C [Compound 6, methyl angolensate] | > 16.6 | 1 | 1
